In the supplement of paper PMC12819154, “High-throughput peptide-centric local stability assay extends protein–ligand identification to membrane proteins, tissues and bacteria” (Nature Structural & Molecular Biology, 2025) one finds log2 fold change data, which are given here for 40 targets.

Amino acid sequences for entries named in this document (tags omitted). A change or cut given only in a name is not applied to a line headed by its entry.
UniProt P21169, whole entry: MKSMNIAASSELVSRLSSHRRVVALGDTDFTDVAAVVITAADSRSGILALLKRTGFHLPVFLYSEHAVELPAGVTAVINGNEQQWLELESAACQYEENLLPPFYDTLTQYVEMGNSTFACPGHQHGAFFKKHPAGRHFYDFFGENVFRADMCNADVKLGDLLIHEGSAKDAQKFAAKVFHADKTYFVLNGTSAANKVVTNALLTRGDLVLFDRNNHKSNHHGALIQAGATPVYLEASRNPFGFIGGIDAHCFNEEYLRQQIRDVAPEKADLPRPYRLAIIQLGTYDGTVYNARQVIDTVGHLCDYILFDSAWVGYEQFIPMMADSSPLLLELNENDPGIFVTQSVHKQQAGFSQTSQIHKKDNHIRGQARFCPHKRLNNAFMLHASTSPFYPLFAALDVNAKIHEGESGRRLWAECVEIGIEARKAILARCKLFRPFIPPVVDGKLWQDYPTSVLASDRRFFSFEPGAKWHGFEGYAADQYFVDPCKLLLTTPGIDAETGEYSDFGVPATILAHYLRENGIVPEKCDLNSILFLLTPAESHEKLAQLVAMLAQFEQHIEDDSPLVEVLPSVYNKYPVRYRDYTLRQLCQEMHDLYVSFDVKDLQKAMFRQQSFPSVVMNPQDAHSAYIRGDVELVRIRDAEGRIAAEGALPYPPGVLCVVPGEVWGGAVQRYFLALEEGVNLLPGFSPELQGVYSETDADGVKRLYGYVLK
UniProt P25906: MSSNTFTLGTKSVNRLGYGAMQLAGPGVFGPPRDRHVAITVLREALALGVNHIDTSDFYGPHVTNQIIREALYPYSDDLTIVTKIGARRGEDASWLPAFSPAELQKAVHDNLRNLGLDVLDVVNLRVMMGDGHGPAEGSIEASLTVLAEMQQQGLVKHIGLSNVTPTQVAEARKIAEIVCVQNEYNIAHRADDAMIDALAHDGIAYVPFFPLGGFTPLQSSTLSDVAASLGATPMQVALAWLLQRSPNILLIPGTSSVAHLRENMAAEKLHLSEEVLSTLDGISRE
UniProt P25550: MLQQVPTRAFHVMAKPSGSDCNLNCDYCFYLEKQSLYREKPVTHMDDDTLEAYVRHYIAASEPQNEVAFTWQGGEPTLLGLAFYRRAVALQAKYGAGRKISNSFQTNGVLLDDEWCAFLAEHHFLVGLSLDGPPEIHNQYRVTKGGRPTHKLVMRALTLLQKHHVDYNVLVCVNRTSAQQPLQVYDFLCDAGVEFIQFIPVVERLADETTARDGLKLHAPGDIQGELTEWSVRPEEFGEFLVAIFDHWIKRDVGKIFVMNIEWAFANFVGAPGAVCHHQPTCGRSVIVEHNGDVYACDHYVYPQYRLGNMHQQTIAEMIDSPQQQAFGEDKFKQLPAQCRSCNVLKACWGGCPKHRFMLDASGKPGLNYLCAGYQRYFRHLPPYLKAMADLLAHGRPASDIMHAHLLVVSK
UniProt P27250: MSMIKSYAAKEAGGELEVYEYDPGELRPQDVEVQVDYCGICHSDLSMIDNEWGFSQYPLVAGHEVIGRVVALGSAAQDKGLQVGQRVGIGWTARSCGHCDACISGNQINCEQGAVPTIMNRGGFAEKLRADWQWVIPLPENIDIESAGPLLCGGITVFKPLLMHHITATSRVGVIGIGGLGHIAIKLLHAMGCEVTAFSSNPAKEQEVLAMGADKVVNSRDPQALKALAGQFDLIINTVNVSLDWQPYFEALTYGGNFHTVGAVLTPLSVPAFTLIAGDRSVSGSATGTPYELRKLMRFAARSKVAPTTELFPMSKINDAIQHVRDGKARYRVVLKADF
UniProt P22186: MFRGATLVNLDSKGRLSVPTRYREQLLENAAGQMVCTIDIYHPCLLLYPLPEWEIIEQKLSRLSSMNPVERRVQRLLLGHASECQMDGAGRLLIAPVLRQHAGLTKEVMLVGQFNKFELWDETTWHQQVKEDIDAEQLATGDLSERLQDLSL
UniProt P16926: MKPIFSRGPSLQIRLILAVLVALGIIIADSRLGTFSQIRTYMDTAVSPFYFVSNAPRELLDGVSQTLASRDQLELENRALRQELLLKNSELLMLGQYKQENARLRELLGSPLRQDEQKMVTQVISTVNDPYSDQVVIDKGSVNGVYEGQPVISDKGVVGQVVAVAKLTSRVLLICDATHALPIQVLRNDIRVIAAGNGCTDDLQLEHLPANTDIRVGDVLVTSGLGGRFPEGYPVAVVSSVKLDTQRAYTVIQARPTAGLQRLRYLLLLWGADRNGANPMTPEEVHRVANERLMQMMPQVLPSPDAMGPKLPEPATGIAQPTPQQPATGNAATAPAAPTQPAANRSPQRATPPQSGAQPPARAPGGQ
UniProt P24178: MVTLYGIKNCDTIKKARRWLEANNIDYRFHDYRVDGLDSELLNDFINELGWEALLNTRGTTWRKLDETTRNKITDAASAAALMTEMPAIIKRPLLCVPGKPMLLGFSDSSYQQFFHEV
UniProt P28905: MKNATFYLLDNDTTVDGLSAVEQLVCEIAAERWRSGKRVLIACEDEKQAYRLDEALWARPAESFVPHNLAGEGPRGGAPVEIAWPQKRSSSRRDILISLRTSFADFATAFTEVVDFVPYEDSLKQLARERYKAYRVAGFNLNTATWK
UniProt P26459: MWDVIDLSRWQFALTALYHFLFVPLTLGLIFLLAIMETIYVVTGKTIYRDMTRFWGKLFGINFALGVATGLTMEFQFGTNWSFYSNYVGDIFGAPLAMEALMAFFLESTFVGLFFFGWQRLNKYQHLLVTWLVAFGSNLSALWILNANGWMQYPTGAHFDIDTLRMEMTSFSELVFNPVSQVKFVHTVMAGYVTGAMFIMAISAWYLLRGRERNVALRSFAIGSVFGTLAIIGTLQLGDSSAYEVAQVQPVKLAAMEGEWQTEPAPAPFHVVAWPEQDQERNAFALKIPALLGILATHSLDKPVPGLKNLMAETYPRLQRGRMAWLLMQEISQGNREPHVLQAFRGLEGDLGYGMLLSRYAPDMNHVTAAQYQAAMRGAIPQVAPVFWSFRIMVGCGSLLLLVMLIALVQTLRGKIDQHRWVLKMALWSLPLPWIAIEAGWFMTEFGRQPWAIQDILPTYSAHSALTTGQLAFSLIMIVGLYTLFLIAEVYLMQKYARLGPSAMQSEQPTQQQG
UniProt P24555: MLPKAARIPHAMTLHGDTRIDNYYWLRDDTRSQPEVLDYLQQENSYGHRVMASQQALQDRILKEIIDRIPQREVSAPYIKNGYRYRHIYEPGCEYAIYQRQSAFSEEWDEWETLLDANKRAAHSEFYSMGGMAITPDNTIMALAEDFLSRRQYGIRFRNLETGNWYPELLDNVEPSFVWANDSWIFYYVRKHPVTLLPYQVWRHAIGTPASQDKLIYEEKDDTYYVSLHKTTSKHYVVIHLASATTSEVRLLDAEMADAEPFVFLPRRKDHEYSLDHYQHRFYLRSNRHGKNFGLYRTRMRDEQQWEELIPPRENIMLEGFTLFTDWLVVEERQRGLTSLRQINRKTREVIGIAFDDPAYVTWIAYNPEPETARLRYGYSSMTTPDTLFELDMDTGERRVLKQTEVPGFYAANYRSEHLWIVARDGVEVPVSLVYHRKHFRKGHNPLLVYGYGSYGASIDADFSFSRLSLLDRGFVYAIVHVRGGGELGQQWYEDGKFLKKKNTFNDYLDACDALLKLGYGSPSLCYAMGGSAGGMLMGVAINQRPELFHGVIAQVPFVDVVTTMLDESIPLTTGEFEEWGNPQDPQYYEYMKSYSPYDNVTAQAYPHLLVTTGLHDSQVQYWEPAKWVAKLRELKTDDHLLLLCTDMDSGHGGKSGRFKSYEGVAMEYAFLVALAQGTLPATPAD
UniProt P25396: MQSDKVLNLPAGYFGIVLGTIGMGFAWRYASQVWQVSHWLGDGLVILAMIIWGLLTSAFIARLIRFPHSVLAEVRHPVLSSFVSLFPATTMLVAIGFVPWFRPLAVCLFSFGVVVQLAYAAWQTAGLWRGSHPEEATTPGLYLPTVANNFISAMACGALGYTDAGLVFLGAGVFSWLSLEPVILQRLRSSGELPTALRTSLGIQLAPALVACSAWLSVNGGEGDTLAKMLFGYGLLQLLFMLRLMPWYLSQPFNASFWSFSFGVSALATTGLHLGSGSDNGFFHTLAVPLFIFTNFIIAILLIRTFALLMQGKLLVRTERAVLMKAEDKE
UniProt P30748: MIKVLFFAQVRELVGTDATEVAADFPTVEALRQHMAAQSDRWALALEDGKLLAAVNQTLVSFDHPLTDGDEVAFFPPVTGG
UniProt P28305: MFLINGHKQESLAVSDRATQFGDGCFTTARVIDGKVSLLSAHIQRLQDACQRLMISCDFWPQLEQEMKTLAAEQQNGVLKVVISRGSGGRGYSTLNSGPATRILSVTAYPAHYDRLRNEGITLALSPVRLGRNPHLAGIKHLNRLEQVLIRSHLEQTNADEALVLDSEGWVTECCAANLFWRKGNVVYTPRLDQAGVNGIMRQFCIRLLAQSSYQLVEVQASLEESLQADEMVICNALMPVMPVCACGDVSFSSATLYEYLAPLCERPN
UniProt P27862: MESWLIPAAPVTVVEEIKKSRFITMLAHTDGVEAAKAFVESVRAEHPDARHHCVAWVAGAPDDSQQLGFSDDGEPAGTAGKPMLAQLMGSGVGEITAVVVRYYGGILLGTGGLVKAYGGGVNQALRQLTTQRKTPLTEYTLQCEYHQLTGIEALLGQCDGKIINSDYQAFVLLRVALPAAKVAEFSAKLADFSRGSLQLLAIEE
UniProt P30131: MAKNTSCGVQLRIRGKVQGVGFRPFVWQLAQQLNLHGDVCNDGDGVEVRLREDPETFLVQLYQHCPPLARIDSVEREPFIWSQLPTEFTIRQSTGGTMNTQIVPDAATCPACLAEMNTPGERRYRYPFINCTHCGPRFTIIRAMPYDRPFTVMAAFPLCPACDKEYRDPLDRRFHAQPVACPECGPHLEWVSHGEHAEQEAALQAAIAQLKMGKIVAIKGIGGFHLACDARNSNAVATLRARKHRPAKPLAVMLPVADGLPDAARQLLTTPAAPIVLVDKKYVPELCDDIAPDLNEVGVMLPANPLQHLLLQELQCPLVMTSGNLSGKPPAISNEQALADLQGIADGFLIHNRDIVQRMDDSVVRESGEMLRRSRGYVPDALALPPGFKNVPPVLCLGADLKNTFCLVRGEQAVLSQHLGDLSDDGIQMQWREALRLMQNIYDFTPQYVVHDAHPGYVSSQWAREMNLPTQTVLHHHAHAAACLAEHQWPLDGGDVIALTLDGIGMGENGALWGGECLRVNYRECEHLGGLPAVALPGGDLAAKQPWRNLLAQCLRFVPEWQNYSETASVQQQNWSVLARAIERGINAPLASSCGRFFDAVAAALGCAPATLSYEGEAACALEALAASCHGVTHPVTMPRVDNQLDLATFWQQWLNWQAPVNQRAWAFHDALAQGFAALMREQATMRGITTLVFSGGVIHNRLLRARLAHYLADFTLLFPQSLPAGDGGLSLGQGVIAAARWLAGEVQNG
UniProt P23524: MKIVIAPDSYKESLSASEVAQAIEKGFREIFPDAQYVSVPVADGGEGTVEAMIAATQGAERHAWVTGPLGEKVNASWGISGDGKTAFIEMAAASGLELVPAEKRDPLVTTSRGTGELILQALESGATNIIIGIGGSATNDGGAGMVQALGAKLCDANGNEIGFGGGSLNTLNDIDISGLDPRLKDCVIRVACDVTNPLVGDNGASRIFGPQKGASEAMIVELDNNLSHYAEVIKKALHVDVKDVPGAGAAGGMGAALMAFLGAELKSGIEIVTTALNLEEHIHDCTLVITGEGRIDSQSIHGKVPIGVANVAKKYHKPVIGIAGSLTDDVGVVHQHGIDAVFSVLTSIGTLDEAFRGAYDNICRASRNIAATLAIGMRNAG
UniProt P26458: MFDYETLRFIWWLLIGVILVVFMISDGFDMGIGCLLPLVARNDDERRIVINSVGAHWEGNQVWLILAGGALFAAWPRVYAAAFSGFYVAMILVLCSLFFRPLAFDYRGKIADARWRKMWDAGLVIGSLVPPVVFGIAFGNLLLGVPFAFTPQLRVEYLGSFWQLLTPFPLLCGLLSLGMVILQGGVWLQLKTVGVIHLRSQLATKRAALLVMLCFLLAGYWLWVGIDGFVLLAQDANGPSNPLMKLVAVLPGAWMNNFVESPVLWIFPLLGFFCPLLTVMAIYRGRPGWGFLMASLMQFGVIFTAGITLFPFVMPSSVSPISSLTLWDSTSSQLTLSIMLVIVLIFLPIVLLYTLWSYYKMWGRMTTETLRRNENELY
UniProt P30744: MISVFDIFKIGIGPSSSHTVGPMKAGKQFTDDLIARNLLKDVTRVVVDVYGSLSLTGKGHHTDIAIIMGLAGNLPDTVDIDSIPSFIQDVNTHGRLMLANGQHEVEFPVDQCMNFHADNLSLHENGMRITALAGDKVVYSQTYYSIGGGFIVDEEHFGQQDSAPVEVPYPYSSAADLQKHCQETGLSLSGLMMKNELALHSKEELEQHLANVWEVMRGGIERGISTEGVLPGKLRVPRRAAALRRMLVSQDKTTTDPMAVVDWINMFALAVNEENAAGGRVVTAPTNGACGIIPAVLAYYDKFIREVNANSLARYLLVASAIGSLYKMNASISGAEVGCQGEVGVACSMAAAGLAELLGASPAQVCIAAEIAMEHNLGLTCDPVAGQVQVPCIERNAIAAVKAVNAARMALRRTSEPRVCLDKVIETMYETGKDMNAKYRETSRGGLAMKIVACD

The entries are a selection whose mix differs from that of the whole data set. Small differences around the control level are noise.
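Note: lysate desalted by size exclusion to strip endogenous ATP, peptide intensities built from DIA-NN precursor signals, and peptides missing any value discarded before comparison.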

Compound in the assay: Nc1ncnc2c1ncn2[C@@H]1O[C@H](COP(=O)(O)OP(=O)(O)OP(=O)(O)O)[C@@H](O)[C@H]1O [adenosine 5'-triphosphate]
The experiment in a line: log2 fold change of tryptic peptide abundance, ligand vs vehicle (limited proteolysis) (log2 ratio); higher = more trypsin-susceptible (destabilized). Particulars: ligand concentration: 5 mM; sample: E. coli desalted lysate; replicate design: treated before aliquoting. As for the experimental part:
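HT-PELSA: desalted E. coli K-12 BW25113 lysate (with 12 mM MgCl2) incubated with 5 mM ATP (pH 7) or water for 30 min at 25 C, then a 4 min trypsin pulse at 22 C. Peptides were quantified by DIA-MS (4 replicates). Value is the peptide log2 fold change (treated/control); negative = stabilized. Scale: negative = ligand-stabilized region.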
For the target “UniProt P26608 (peptide sequence: RLLQANLR, peptide start residue: 95)”, the log2 fold change is 0.0814.
Then “UniProt P27245 (peptide sequence: LIHMVNQK, peptide start residue: 17)”, with 0.371.
To “UniProt P24169 (peptide sequence: QQAGFSQTSQIHK, peptide start residue: 348)” belongs -0.671; to “UniProt P21169 (peptide sequence: IHEGESGR, peptide start residue: 403)”, -0.909.
Then “UniProt P27127 (peptide sequence: LHVLGDGSDFEK, peptide start residue: 211)”, with -0.0392.
Consider “UniProt P25906 (peptide sequence: HVAITVLR, peptide start residue: 36)”, for which the log2 fold change is -0.283.
To “UniProt P25550 (peptide sequence: LADETTAR, peptide start residue: 205)” belongs -0.541.
As to “UniProt P19930 (peptide sequence: IPAYLSAK, peptide start residue: 84)”, the log2 fold change worked out at 0.084.
Then “UniProt P27250 (peptide sequence: VVALGSAAQDK, peptide start residue: 69)”, with -0.108; and “UniProt P22186 (peptide sequence: GATLVNLDSK, peptide start residue: 4)”, with -0.0768.
To “UniProt P16926 (peptide sequence: NSELLMLGQYK, peptide start residue: 88)” belongs 1.46.
To “UniProt P23256 (peptide sequence: GVAGLINAIR, peptide start residue: 378)” belongs -0.462; to “UniProt P24178 (peptide sequence: WLEANNIDYR, peptide start residue: 19)”, 0.126; to “UniProt P28905 (peptide sequence: VLIACEDEK, peptide start residue: 39)”, 0.319.
On to “UniProt P26459 (peptide sequence: NLMAETYPR, peptide start residue: 309)”, for which the log2 fold change is 0.00571.
Then “UniProt P24218 (peptide sequence: YAHLAPNHLTEHAR, peptide start residue: 349)”, with -0.878.
To “UniProt P24555 (peptide sequence: VMASQQALQDR, peptide start residue: 50)” belongs 0.229; to “UniProt P23843 (peptide sequence: NMYIVKH, peptide start residue: 537)”, 0.756.
Then “UniProt P24175 (peptide sequence: VEQHFSR, peptide start residue: 393)”, with -0.453.
Regarding “UniProt P30138 (peptide sequence: LLSGIETPAGELR, peptide start residue: 208)”, the log2 fold change was -0.275.
For “UniProt P24171 (peptide sequence: HYQSGAAMPDELQQK, peptide start residue: 521)”, the log2 fold change was 0.385.
To “UniProt P30863 (peptide sequence: AQNLQLDAEDKK, peptide start residue: 234)” belongs 0.308; to “UniProt P24242 (peptide sequence: QLLLADGKHSAEEER, peptide start residue: 93)”, -0.389; to “UniProt P25396 (peptide sequence: AVLMKAEDKE, peptide start residue: 321)”, -0.264.
Then “UniProt P22256 (peptide sequence: VWDVEGR, peptide start residue: 35)”, with -0.418; and “UniProt P28915 (peptide sequence: LNENHAIK, peptide start residue: 93)”, with 0.607.
For “UniProt P30748 (peptide sequence: QHMAAQSDRWALALEDGK, peptide start residue: 33)”, the log2 fold change is -0.356.
For the target “UniProt P19319 (peptide sequence: GETFADGHGQVMHSNR, peptide start residue: 15)”, the log2 fold change is 0.883.
“UniProt P30130 (peptide sequence: VENQTGVR, peptide start residue: 731)”: the log2 fold change is -0.35.
Then “UniProt P28305 (peptide sequence: LQDACQR, peptide start residue: 46)”, with 0.488.
As for “UniProt P27862 (peptide sequence: AYGGGVNQALR, peptide start residue: 116)”, the log2 fold change was found to be 0.403.
Then “UniProt P30131 (peptide sequence: NLLAQCLR, peptide start residue: 549)”, with 0.109; and “UniProt P23524 (peptide sequence: IVIAPDSYK, peptide start residue: 3)”, with -0.274.
Then “UniProt P26458 (peptide sequence: RNENELY, peptide start residue: 372)”, with 0.333; and “UniProt P19318 (peptide sequence: SQTVEGVTDTR, peptide start residue: 418)”, with 0.356.
Turning to “UniProt P19926 (peptide sequence: YQQEPGVSGPLK, peptide start residue: 215)”, the log2 fold change was -0.278.
In the case of “UniProt P22787 (peptide sequence: TVVPGESSATVK, peptide start residue: 396)”, the log2 fold change is -0.203.
Then “UniProt P23873 (peptide sequence: IYSPTQLANAMK, peptide start residue: 7)”, with 0.222; and “UniProt P25738 (peptide sequence: AAADEWDER, peptide start residue: 116)”, with 0.109.
Then “UniProt P30744 (peptide sequence: QFTDDLIAR, peptide start residue: 28)”, with 0.276.
